Measurements published in the supplement of paper PMC4683952.
The list shows a part of the results. Cut-off read from the data, not from the text of the source: active = 2 or more and inactive = the rest. Repeats in this data set agree poorly, so a single value says little.

System: Lgr5 (MarsCy1-Lgr5-EGFP, U2OS)
Assay: cell-surface Lgr5 expression (SCi1 fluorescence, background-subtracted) relative to WT DMSO (fold of DMSO control); higher = more Lgr5 at the plasma membrane
Settings: U2OS MarsCy1-Lgr5-EGFP stable; treatment time: overnight; library: ActiProbe-5K (TimTec); 25 µM

Row | Structure (SMILES) | cell-surface Lgr5 expression
1 | CN(C)C(=O)CSc1nnc(N)s1 | inactive: 1.18
2 | C/C(=C\c1cccs1)[N+](=O)[O-] | inactive: 1.1
3 | COc1cc2c(cc1OC)C1(CCN(C)CC1)OCC2 | inactive: 1.05
4 | Cc1cc(C)n(CCc2nn[nH]n2)n1 | inactive: 1.23
5 | N/N=C1/C2CN3CCN(C2)CC1(Cc1ccc(O)cc1)C3 | inactive: 1.23
6 | Cc1cc(C)c(C)c(S(=O)(=O)NCC2CCCO2)c1C (centres undefined) | inactive: 1.21
7 | O=C(O)C1CSC(C2CC=CCC2)N1 (centres undefined) | inactive: 1.03
8 | CCC1CCC2(CC1)N[C@H](C(=O)O)CS2 (some centres undefined) | inactive: 1.16
9 | CCSc1sc(C(C)(CC)c2cc(C(C)=O)c(SCC)s2)cc1C(C)=O | inactive: 1.15
10 | Clc1ccc(Nc2nc3nonc3nc2Nc2ccc(Cl)c(Cl)c2)cc1Cl | inactive: 1.29
11 | C=12[C@H]([C@@H]([C@](C(=C2C#N)N)(C#N)C#N)c2cnccc2)(C2N(C(CC2)C1)C) (some centres undefined) | inactive: 1.28
12 | OCCN(/C=N\C1=NN(c2ccccc2)CC1)CCO | inactive: 1.26
13 | Brc1ccc(-c2noc(C3CCCCC3)n2)o1 | inactive: 1.21
14 | O=[N+]([O-])c1ccc2nc(Nc3ccc(Cl)c(Cl)c3)c(Nc3ccc(Cl)c(Cl)c3)nc2c1 | inactive: 1.33
15 | N#Cc1ccc(Br)o1 | inactive: 1.08
16 | Oc1ccc(/N=N\c2nccs2)c(O)c1 | inactive: 0.722
17 | COc1cc(CC(C)Br)cc2c1OCO2 (centres undefined) | inactive: 1.01
18 | Cc1cc(NC2(C(F)(F)F)N=C3SCCN3C2=O)no1 (centres undefined) | inactive: 1.06
19 | CC(C)(C)S(=O)(=O)c1ccc(S(=O)(=O)C(C)(C)C)s1 | inactive: 1.3
20 | C#CCSc1nc(N)c(C#N)cc1C#N | inactive: 1.31
21 | O=[N+]([O-])c1cc2c(cc1-n1ccnc1)OCCO2 | inactive: 1.05
22 | CCOC(=O)c1c(N)sc(C)c1C | inactive: 1.09
23 | O=c1[nH]nc(CSc2ccc([N+](=O)[O-])cc2)[nH]1 | inactive: 1.03
24 | O=S(=O)(c1ccccc1)c1cccs1 | inactive: 1.14
25 | CCN(CC)C(=S)NC1CCCCC1 | inactive: 1.38
26 | O=c1cn[nH]c(=S)n1/N=C/c1c(Cl)ccc(Cl)c1Cl | inactive: 0.995
27 | N#Cc1c(C(F)(F)F)cc(C2CC2)nc1SCc1cccc(F)c1 | inactive: 0.886

Row | Structure (SMILES) | cell-surface Lgr5 expression
28 | Cc1c(C#N)c(N)n(CCC2=CCCCC2)c1C | inactive: 1.27
29 | CNc1c([N+](=O)[O-])cc2c(c1[N+](=O)[O-])n(C)c(=O)n2C | inactive: 1.04
30 | O=c1cc(O)c2sc3nc4c(c(C(F)F)c3c2[nH]1)CCCC4 | inactive: 1.36
31 | N#Cc1csc2c1CCCC2 | inactive: 1.16
32 | CN1C(=O)C(CCO)NC1=S (centres undefined) | inactive: 1.07
33 | c1ccc(C2C3=C(Nc4ncnn42)c2ccccc2CCC3)cc1 (centres undefined) | inactive: 1.57
34 | Cc1nonc1-c1ccnc2nnc(N)n12 | inactive: 1.03
35 | CC(C)(C)c1nn2cnnc2[nH]c1=O | inactive: 0.94
36 | O=C(O)c1ccc(Br)o1 | inactive: 0.965
37 | O=S(=O)(Nc1ncccn1)c1ccc(Cl)cc1 | inactive: 0.978
38 | C/N=C1\S/C(=C/c2ccc(C)s2)C(=O)N1C | inactive: 1.28
39 | Cc1cc(OCc2ccc3nsnc3c2)c(C(C)C)cc1-n1cnnn1 | inactive: 0.896
40 | Sc1nnc(Nc2ccccc2)n1-c1ccccc1 | inactive: 1.11
41 | O=C1NC2(Nc3ccccc31)C(=O)Nc1ccccc12 (centres undefined) | inactive: 1.11
42 | CCN(CC)C1(CN)CCCCC1 | inactive: 0.992
43 | O=C1/C(=C/c2ccncc2)SC(=S)N1C1CCS(=O)(=O)C1 (centres undefined) | inactive: 1.68
44 | CN(C)c1c([N+](=O)[O-])cc2[nH]c(=O)[nH]c2c1[N+](=O)[O-] | inactive: 1.84
45 | COc1ccc(C2NN=C(c3ccc(C)cc3)S2)cc1 (centres undefined) | inactive: 0.987
46 | O=S(=O)(NCc1ccc2c(c1)OCO2)c1ccc2oc3ccccc3c2c1 | inactive: 1.28
47 | CC1(O)OC2(C)CCC1(C)OC2(C)O (centres undefined) | inactive: 1.23
48 | Clc1ccc(-c2nc3sc(-c4ccc(Cl)cc4Cl)nc3s2)c(Cl)c1 | inactive: 1.22
49 | Nc1ccc(S(=O)(=O)N2CCCC2)cc1 | inactive: 1.11
50 | CNc1sc2c(O)cc(=O)[nH]c2c1C#N | inactive: 1.11
51 | CCn1ncc(Cl)c1C(=O)NC1C(=O)N2C(C(=O)O)=C(COC(C)=O)CSC12 (centres undefined) | inactive: 1.26
52 | C(=N/c1nccs1)/c1ccco1 | inactive: 0.892
53 | C1(C(\C=C(/Cl)Cl)C1C(=O)O)(C)C (centres undefined) | inactive: 1.32
54 | C(=C/c1nnc2ccc3ccccc3n12)/c1ccco1 | inactive: 1.16

In a second layout: results already given.
O=[N+]([O-])c1cc2c(cc1-n1ccnc1)OCCO2
  cell-surface Lgr5 expression: inactive: 1.05
N#Cc1c(C(F)(F)F)cc(C2CC2)nc1SCc1cccc(F)c1
  cell-surface Lgr5 expression: inactive: 0.886
O=C(O)c1ccc(Br)o1
  cell-surface Lgr5 expression: inactive: 0.965
Cc1cc(OCc2ccc3nsnc3c2)c(C(C)C)cc1-n1cnnn1
  cell-surface Lgr5 expression: inactive: 0.896
